# Laboratory results as given in article PMC7702703.
# Protein sequences, listed by entry. Tags and fused reporters are not part of them. Lines headed by an entry give the natural chain unless they say otherwise; changes in a name come on top. Chains listed by the source or under a name are the forms on record and can include a tag or linker.
# UniProt P10852: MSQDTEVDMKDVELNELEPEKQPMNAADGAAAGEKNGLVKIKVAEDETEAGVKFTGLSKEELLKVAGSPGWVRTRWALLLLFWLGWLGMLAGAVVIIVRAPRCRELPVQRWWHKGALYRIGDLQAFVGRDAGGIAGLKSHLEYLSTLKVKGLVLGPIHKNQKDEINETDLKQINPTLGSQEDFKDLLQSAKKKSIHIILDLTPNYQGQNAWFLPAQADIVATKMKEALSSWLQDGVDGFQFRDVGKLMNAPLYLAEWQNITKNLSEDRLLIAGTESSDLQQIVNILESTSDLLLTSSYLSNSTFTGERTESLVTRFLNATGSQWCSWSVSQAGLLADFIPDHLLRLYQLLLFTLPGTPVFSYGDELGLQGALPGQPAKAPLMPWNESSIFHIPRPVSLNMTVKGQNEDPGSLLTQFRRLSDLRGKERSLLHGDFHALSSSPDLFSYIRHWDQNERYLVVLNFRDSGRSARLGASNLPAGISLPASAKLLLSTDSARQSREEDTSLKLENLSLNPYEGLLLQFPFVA
# UniProt Q9Z127: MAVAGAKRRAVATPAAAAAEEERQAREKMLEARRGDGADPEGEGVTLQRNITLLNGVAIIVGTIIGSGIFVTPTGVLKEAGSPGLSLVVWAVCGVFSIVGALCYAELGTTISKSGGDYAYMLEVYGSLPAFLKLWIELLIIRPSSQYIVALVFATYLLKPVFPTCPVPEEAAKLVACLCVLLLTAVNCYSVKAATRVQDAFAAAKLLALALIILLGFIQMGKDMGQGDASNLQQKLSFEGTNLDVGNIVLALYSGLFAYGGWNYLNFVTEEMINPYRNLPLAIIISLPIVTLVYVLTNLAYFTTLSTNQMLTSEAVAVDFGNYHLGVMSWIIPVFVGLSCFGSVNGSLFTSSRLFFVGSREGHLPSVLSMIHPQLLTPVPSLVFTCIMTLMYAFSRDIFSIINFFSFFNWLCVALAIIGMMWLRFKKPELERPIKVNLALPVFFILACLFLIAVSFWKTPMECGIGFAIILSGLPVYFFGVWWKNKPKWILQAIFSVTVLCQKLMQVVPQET
# exon 3-deleted LAT1 (LAT1-Δex3) (Q9Z127, form named): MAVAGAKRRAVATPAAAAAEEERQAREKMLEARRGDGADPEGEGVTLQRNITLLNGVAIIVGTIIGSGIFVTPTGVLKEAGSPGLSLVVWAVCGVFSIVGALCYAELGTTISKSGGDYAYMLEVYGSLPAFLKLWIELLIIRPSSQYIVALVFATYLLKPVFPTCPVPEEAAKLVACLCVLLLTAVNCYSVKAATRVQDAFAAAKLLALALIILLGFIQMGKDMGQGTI
# Results are given in words; binding and its absence hold for the method and conditions named. Some binding calls cover weakened binding; strength is not graded here.
# Target: 4F2 heavy chain (4F2hc) (UniProt P10852)
# Assay: non-reducing SDS-PAGE and western blot (DTT-sensitive heterodimer band); total membrane fractions of X. laevis oocytes 2 days after cRNA injection (LAT1 or LAT1-Δex3 alone or with equimolar 4F2hc cRNA); western blotting with mLAT1(R) antibody and 4F2hc antibody in the presence or absence of 100 mM DTT
row,binding,Substance
1,binds,"L-type amino acid transporter 1 (LAT1), wild type (from UniProt Q9Z127 1-512)"
2,no binding,exon 3-deleted LAT1 (LAT1-Δex3) (from UniProt Q9Z127 1-227) (domain or fragment)
